Out of some 360,000 compounds screened, about 7,500 (2.1%) were called active. The inconclusive results got no clear call from the source; some entries with a clear call stand among them for comparison. Calls follow the shape of the dose curve; as a rule, active = well fitted inhibition curve with a large enough effect; inconclusive = small, poorly fitted or top-dose-only effect, or effect the other way; inactive = flat fitted curve, though single readings scatter. A potency beside an inconclusive call is a rough fit, not a confirmed value.
Assay: Nrf2 qHTS screen for inhibitors; also: nearly all actives have a fitted effect of over 60% in size
Details: A549 ARE-Fluc reporter, luciferase luminescence, 18-24 h; activity change, negative = inhibition: at 46 µM (top of the series)
Summary of the method: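 Nrf2 function is reported as luminescence of an ARE-controlled luciferase in A549 cells. Compounds were tested at several concentrations, and a CellTiter-Fluor read on the same wells flagged cytotoxicity.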
% is scaled to controls: 0 for no effect and ±100 for the full control effect; potency is read from the fitted curve at half-maximal effect.

Row | Structure (SMILES) | Potency | activity change, negative = inhibition
1 | COc1cccc(Nc2c3c(nc4c(-c5ccccc5)c(C)nn24)CCC3)c1 | inconclusive: 16.4 µM [falling, partial curve] | 
2 | COc1ccccc1CNC(=O)CN1C(=O)NC(Cc2ccccc2)(c2ccccc2)C1=O (centres undefined) | inconclusive: 25.9 µM [falling, single point] | 
3 | CCCc1cc(=O)oc2cc(OCc3cc(OC)c(OC)c(OC)c3)c(Cl)cc12 | inconclusive: 0.058 µM [falling, full curve, poor fit] | 
4 | CCCCNc1c(-c2ccc(SC(C)CC)c(OC)c2)nc2ccc(C)cn12 (centres undefined) | inconclusive: 29.1 µM [falling, single point] | 
5 | COc1ccc(C2C=C(c3ccccc3)Nc3nc(NC(=O)/C=C/c4ccc(Cl)cc4)nn32)cc1 (centres undefined) | inconclusive: 14.6 µM [activator, partial curve] | 
6 | Cc1nnc(Sc2nc3ccccc3o2)c2ccccc12 | inconclusive: 10.3 µM [falling, partial curve] | 
7 | Cc1cc2c(s1)c1cnn(Cc3ccc(F)c(C)c3)c(=O)c1n2C |  | inactive: 8.02%
8 | COc1ccc(CN2CCN(c3ncnc4scc(-c5ccc(F)cc5)c34)CC2)cc1 | inconclusive: 32.6 µM [falling, single point] | 
9 | N#Cc1cccnc1N1CCN(C(=O)c2cccc3c2C(=O)c2ccc(-c4ccc(Cl)c(C(F)(F)F)c4)cc2S3(=O)=O)CC1 |  | inactive: 4.05%
10 | Cc1nc2nc(SCC(=O)NCCCN3CCCC(C)C3)nn2c(C)c1Cc1ccccc1Cl (centres undefined) | inconclusive: 29.1 µM [activator, partial curve, poor fit] | 
11 | COc1ccc(C)cc1S(=O)(=O)Nc1cc2c3c(c1)CCC(=O)N3CCC2 | inconclusive: 2.06 µM [falling, partial curve, poor fit] | 
12 | CC(CCc1ccccc1)N1CCN(Cc2ccccc2)CC1 (centres undefined) |  | inactive: 0.428%
13 | COc1ccccc1NC(=O)c1cc2ccccc2o1 | inconclusive: 10.3 µM [activator, partial curve] | 
14 | N/C(=N\OC(=O)CCC1CCCCC1)c1ccc([N+](=O)[O-])cc1 | inconclusive: 10.3 µM [activator, partial curve] | 
15 | COc1ccc(N2CCN(C(=O)c3cccc(S(=O)(=O)N4CCc5ccccc54)c3)CC2)cc1 | inconclusive: 29.1 µM [falling, single point] | 
16 | O=C(COc1ccccc1Cl)Nc1ccc2c(c1)OCO2 | inconclusive: 20.6 µM [activator, partial curve] | 
17 | CCCCC(=O)Nc1ccc2oc(-c3cccnc3)nc2c1 |  | inactive: -16.7%
18 | Cc1ccc(NC(=O)c2c(Cl)nc3ccccn23)cc1 | inconclusive: 29.1 µM [activator, single point] | 
19 | O=C(Oc1ccc2ccccc2c1Br)N1CCCCCC1 | inconclusive: 0.92 µM [activator, full curve, poor fit] | 
20 | CCOc1ccc(N2CC(c3nc4ccccc4n3CCOc3ccccc3)CC2=O)cc1 (centres undefined) | inconclusive: 29.1 µM [falling, single point] | 
21 | O=C(Cn1cnc2ccccc2c1=O)c1ccccc1 | inconclusive: 9.2 µM [activator, partial curve] | 
22 | O=C1CCCC2=C1C1(CCCOC1)N=C(Nc1nc3ccccc3o1)N2 (centres undefined) | inconclusive: 23.1 µM [falling, single point] | 

Given as tab-separated lines: 3 of the compounds above
Row	Structure (SMILES)	Potency	activity change, negative = inhibition
4	CCCCNc1c(-c2ccc(SC(C)CC)c(OC)c2)nc2ccc(C)cn12 (centres undefined)	inconclusive: 29.1 µM [falling, single point]	
5	COc1ccc(C2C=C(c3ccccc3)Nc3nc(NC(=O)/C=C/c4ccc(Cl)cc4)nn32)cc1 (centres undefined)	inconclusive: 14.6 µM [activator, partial curve]	
6	Cc1nnc(Sc2nc3ccccc3o2)c2ccccc12	inconclusive: 10.3 µM [falling, partial curve]	

Further compounds.

Row | Structure (SMILES) | Potency | activity change, negative = inhibition
23 | CCc1nc(NCc2ccccn2)c2oc3ccccc3c2n1 | active: 9.2 µM | 
24 | O=C(Nc1cccc(-c2ccc(N3CCOCC3)nn2)c1)c1ccccc1Cl | inconclusive: 4.61 µM [activator, full curve, poor fit] | 
25 | CCCCn1cnc2c(cnn2-c2ccc(Cl)cc2)c1=O |  | inactive: 1.16%
26 | O=C(CSCc1ccccn1)Nc1ccccc1 | inconclusive: 29.1 µM [activator, single point] | 
27 | FC(F)(F)c1nc(-c2ccccc2)ncc1-c1nnnn1-c1ccccc1 | inconclusive: 20.6 µM [falling, partial curve] | 
28 | CC(=O)c1cn(-c2ccc(Cl)cc2)c(=O)[nH]c1=O | inconclusive: 32.6 µM [activator, single point] | 
29 | O=C(Nc1cccc(Cl)c1N1CCCCC1)c1ccc2c(c1)OCCO2 | inconclusive: 25.9 µM [falling, single point] | 
30 | Cc1ccc(/C=N/NC(=O)c2nnn(-c3nonc3N)c2CSc2ccc(Cl)cc2)o1 | inconclusive: 23.1 µM [falling, single point] | 
31 | Cc1ccc(C(=O)NCC(c2cccnc2)N2CCc3ccccc3C2)cc1C (centres undefined) | inconclusive: 0.058 µM [activator, full curve, poor fit] | 
32 | CCCNC(=O)c1cc2nc(-c3ccccc3)cc(C(F)(F)F)n2n1 | inconclusive: 9.2 µM [falling, partial curve, poor fit] | 
33 | Cc1ccc(C(=O)N2CCN(c3ccccc3)CC2)cc1S(=O)(=O)N1CCCC1 | active: 20.6 µM | 
34 | COc1ccc(CCN(/C=C2\Sc3ccccc3C2=O)C(C)=O)cc1OC | inconclusive: 29.1 µM [activator, single point] | 
35 | Cc1ccc(NC(=O)c2ccc(C(=O)c3ccccc3)cc2)nc1 | inconclusive: 29.1 µM [falling, single point] | 
36 | CN(C(=O)c1cccc(NC(=O)Cc2ccc(NC(=O)C3CCCN(C(=O)CCc4ccccc4)C3)cc2)c1)C1CCC1 (centres undefined) | active: 16.4 µM | 
37 | NC(=O)c1ccc(Nc2ccc3c(c2)CCC3)c([N+](=O)[O-])c1 | inconclusive: 25.9 µM [falling, partial curve, poor fit] | 
38 | Cc1sc2nc(SCC(=O)NCc3ccco3)n(C)c(=O)c2c1C | inconclusive: 23.1 µM [falling, single point] | 
39 | Cc1ccc(Nc2nc(N)nc(CSc3nccn3C)n2)cc1 | inconclusive: 0.82 µM [activator, full curve, poor fit] | 
40 | O=C(COc1ccc(F)cc1)Nc1ccc(Cl)c(-c2nc3ccccc3[nH]2)c1 | inconclusive: 29.1 µM [falling, single point] | 
41 | COc1ccccc1-c1nnc(C2CCN(S(=O)(=O)c3ccc(F)c(C)c3)CC2)o1 | inconclusive: 29.1 µM [falling, single point] | 
42 | COc1ccc(C(=O)Nc2cc(OC)nc(OC)n2)cc1 | inconclusive: 4.61 µM [activator, partial curve] | 
43 | Nc1ncnc2oc(-c3ccoc3)c(-c3ccco3)c12 | inconclusive: 10.3 µM [falling, partial curve, poor fit] | 
44 | Cc1cccc(NC(=O)c2c(C)oc3ncnc(N4CCCCC4)c23)c1C | inconclusive: 13 µM [activator, partial curve] | 

Row | Structure (SMILES) | Potency | activity change, negative = inhibition
45 | O=C(O)c1ccccc1C(=O)NCc1c(Cl)cccc1Sc1ccc(Cl)cc1 | inconclusive: 3.26 µM [falling, partial curve, poor fit] | 
46 | O=C(N/N=C/c1cn(-c2ccccc2)nc1-c1cc2ccccc2o1)c1c[nH]c2ccccc12 | inconclusive: 20.6 µM [activator, single point] | 
47 | CCOC(=O)NC(=O)/C(C#N)=N\Nc1cccc(Cl)c1 | inconclusive: 23.1 µM [falling, single point] | 
48 | Cc1ccc(NC(=O)c2ccc([N+](=O)[O-])o2)cc1S(=O)(=O)N1CCOCC1 |  | inactive: 9.34%
49 | O=S(=O)(c1ccccc1)c1nc(-c2ccccc2F)oc1N1CCOCC1 |  | inactive: -13.5%
50 | CCOC(=O)Cc1csc(NC(=O)CN2CCCCC2)n1 | inconclusive: 29.1 µM [falling, single point] | 
51 | CCCCn1c(SCC(=O)N2CCN(c3ccccc3)CC2)nc2ccsc2c1=O | inconclusive: 29.1 µM [falling, single point] | 
52 | COc1cc2ccccc2cc1C(=O)Nc1ccc2oc(-c3cccc(C)c3)nc2c1 | inconclusive: 0.411 µM [activator, full curve, poor fit] | 
53 | CCOC(=O)c1c(-c2ccccc2)oc2ccc(OCC)cc12 | inconclusive: 20.6 µM [activator, partial curve, poor fit] | 
54 | CCOC(=O)C1=C(C)N=C2SC(C)C(=O)N2C1c1cccc(F)c1 (centres undefined) | inconclusive: 20.6 µM [falling, single point] | 
55 | Cc1[nH]c2ccccc2c1C(=O)COC(=O)c1nccnc1N | inconclusive: 18.4 µM [activator, single point] | 
56 | CC(C)(C)NC(=O)CSc1nsc(SCC(=O)NC(C)(C)C)c1C#N | inconclusive: 13 µM [falling, partial curve, poor fit] | 
57 | Cc1ccc(S(=O)(=O)CCC(=O)N2CCN(c3ccc([N+](=O)[O-])cc3)CC2)cc1 | active: 20.6 µM | 
58 | COc1ccccc1NS(=O)(=O)c1cc(NC(=O)CCc2nc3ccccc3c(=O)[nH]2)ccc1C | inconclusive: 23.1 µM [falling, single point] | 
59 | O=C(Nc1ccccn1)c1cc2cc([N+](=O)[O-])ccc2s1 |  | inactive: 25.1%
60 | COc1cc(C2C(C#N)=C(N)Oc3c2c(-c2ccccc2)nn3-c2ccccc2)cc(OC)c1OC (centres undefined) | inconclusive: 16.4 µM [falling, single point] | 
61 | CCOc1ccc(NC(=O)CN(C)C(=O)c2cccc(S(=O)(=O)N3CCCC3)c2)cc1OCC |  | inactive: 6.49%
62 | Cc1ccc(NC(=O)c2ccc(=O)[nH]n2)cc1S(=O)(=O)Nc1ccc(SC(F)F)cc1 | active: 20.6 µM | 
63 | COc1ccc(OCCNC(=O)c2ccccc2OCC(=O)Nc2ccc(NC(C)=O)cc2)cc1 | inconclusive: 20.6 µM [falling, single point] | 
64 | COc1ccc(OCc2cccc(C(=O)N3CCCC3)c2)cc1 | inconclusive: 1.3 µM [activator, full curve, poor fit] | 
